Measured values reported in publication PMC4122054.
These are yes or no findings as the source states them, for the method shown. Binding seen in cells or lysates may run through a third protein. Some entries that bind do so weakly or less than the wild type.

The chains behind the UniProt entries cited, without tags or fusion partners.
UniProt Q09472: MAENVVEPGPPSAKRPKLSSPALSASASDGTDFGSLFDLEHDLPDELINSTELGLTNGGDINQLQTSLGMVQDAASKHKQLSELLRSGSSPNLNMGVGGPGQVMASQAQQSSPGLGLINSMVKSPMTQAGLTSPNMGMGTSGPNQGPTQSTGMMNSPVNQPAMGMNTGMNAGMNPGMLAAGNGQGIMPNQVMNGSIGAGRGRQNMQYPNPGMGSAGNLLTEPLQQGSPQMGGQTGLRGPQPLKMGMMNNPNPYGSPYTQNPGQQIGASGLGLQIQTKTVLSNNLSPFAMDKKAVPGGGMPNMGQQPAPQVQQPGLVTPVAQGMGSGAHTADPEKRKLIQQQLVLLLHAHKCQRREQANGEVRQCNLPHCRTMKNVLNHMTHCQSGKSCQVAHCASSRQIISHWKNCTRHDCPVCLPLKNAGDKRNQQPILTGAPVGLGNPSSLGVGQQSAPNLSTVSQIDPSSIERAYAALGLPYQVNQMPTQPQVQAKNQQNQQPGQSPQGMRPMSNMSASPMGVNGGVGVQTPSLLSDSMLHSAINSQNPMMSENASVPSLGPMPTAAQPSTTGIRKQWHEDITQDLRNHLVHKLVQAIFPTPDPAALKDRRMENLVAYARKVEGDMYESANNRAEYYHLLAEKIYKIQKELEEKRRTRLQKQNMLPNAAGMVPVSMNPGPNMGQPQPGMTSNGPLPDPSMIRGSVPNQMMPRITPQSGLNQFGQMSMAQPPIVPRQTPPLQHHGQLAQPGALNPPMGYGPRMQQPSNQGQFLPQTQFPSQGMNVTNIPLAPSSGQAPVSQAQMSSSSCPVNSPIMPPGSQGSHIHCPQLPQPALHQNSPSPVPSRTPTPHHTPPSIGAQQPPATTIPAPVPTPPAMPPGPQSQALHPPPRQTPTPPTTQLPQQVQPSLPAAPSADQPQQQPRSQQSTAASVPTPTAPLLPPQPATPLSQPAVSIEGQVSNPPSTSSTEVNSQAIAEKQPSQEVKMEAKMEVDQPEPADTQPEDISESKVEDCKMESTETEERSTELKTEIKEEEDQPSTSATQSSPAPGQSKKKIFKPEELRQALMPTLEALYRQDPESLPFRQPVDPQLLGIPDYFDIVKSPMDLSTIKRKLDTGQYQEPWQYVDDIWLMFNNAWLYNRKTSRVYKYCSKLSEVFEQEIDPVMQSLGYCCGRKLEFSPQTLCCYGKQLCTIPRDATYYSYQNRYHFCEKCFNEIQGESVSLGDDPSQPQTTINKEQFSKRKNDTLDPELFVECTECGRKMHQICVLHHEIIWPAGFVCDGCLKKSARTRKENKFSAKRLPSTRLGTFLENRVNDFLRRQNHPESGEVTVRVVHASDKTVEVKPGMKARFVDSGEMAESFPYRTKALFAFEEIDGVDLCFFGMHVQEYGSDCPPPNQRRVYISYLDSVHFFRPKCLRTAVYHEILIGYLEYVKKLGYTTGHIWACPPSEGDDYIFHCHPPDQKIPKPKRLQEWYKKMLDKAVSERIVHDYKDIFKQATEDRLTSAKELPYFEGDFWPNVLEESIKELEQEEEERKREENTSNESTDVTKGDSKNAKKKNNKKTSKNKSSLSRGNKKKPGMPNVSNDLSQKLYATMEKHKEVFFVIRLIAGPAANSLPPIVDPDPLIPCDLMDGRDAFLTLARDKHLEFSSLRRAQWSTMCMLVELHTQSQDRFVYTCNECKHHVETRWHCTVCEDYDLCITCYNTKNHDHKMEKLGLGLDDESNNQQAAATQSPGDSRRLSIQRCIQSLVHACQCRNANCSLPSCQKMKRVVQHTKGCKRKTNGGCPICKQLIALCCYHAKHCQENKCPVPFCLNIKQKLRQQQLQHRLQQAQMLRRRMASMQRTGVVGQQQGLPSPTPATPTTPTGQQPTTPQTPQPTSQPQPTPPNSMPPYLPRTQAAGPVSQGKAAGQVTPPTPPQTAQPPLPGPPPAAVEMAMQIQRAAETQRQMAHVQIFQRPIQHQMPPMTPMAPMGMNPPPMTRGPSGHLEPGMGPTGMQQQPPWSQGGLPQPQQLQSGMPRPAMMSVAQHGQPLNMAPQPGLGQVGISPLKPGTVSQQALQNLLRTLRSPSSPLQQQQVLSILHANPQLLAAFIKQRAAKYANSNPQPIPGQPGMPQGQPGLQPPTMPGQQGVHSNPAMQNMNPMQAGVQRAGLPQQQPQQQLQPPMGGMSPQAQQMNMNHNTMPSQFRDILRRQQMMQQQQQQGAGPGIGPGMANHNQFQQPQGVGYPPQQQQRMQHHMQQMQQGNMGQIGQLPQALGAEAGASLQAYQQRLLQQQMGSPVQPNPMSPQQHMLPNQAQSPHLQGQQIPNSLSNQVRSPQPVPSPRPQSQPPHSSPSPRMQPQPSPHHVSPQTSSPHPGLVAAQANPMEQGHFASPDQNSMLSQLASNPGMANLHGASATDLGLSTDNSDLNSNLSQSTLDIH

Target: T1, Zinc finger E-box-binding homeobox 1 (human (endogenous in mesenchymal lung tumor cell lines)) (UniProt P37275)
T1 sequence: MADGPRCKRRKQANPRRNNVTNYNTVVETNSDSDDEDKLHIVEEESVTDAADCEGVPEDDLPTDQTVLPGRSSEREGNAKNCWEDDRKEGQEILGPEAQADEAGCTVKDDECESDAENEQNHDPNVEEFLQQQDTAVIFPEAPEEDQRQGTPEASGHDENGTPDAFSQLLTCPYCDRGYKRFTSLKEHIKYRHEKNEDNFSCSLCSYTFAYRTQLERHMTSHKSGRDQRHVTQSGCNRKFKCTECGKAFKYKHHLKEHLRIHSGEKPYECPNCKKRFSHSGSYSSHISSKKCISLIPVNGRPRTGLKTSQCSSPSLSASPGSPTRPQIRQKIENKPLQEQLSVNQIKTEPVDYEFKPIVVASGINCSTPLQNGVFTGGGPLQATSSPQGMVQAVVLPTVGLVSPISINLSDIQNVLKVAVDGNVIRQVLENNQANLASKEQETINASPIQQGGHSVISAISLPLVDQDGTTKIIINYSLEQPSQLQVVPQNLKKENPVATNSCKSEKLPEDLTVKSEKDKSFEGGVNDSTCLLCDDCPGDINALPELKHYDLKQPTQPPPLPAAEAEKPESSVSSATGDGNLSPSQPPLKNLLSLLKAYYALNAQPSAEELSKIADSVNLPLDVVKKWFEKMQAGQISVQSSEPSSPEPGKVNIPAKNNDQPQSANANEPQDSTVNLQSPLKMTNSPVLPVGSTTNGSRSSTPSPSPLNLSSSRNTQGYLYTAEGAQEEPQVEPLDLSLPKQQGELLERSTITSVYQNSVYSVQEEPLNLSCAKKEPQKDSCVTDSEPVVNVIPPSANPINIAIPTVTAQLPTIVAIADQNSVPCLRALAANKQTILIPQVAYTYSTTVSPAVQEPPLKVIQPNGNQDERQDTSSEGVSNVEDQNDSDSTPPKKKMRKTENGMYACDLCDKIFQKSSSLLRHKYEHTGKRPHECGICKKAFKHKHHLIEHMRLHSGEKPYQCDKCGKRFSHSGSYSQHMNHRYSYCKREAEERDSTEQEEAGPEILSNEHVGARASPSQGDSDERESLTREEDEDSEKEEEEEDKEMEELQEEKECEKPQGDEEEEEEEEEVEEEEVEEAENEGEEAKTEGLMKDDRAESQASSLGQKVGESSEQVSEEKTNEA
Test: co-IP; endogenous proteins; 8 x 10^7 cells per immunoprecipitation lysed in NP-40 buffer (0.2% NP-40, 150 mM NaCl, 20 mM Tris pH 8.0, 10 mM EDTA); 2 ug ZEB1 or control antibody with protein-G sepharose overnight at 4°C; four washes in lysis buffer; Western blot

Substance: p300 (from UniProt Q09472 1-2414)
- binding: binds
